Data as given in PubChem BioAssay AID1259308 (NCATS, 2017)
Shown is a random part of about 59,000 reagents tested. In the full data, about 1,510 (2.6%) got an active call. 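Calls use total luciferase alone and ignore viability, so some active siRNAs may act by altering cell number.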 The numbers tell different reagents against one gene apart. Not all columns of the deposit are shown. No sequences are given here.

Assay: 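Knock-downs that increase output of a recombinant reporter protein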 (primary screen)
Cell system: human HEK293 embryonic kidney cells stably expressing firefly luciferase (HEK-CMV-Luc2-Hygro)
Reagents: single siRNA against human genes, 0.8 pmol siRNA per well
Duration: 72 h
Read-out: 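Luciferase light (ONE-Glo) measured on one replicate plate set and viability (CellTiter-Glo) on the other, scaled to a negative control siRNA, with robust z-scores and luciferase per cell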
Scale: total luciferase, z-score and total luciferase, % of control: higher = more reporter protein produced; luciferase per cell, z-score: higher = more reporter output per viable cell
Call rule: 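Active when the median/MAD z-score for overall luciferase is greater than 3; a gene was taken forward for validation with new siRNAs if at least two of its three siRNAs passed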
Meaning of the calls: active = raised luciferase; inactive = no rise

The opening 3 records as a preview:
gene,reagent no.,"total luciferase, z-score","total luciferase, % of control","luciferase per cell, z-score",outcome
NCKAP1L,1,0.616,94.1,0.0938,inactive
NCKAP1L,2,-0.347,75,-0.549,inactive
NCKAP1L,3,0.369,89.2,0.537,inactive

The listing, repeating the preview:
gene,reagent no.,"total luciferase, z-score","total luciferase, % of control","luciferase per cell, z-score",outcome
NCKAP1L,1,0.616,94.1,0.0938,inactive
NCKAP1L,2,-0.347,75,-0.549,inactive
NCKAP1L,3,0.369,89.2,0.537,inactive
OAZ1,1,3.99,161,2.44,active
OAZ1,2,2.3,128,1.55,inactive
OAZ1,3,3.15,145,1.75,active
ZNF641,1,-0.527,71.4,0.549,inactive
ZNF641,2,-0.85,65,0.111,inactive
ZNF641,3,-1.33,55.4,-1.35,inactive
TMEM184B,1,-1.1,60.1,1.57,inactive
TMEM184B,2,-0.812,65.7,-0.795,inactive
TMEM184B,3,0.528,92.4,0.376,inactive
TAF1C,1,0.517,92.2,-0.282,inactive
TAF1C,2,-1.68,48.5,-1.09,inactive
TAF1C,3,0.668,95.2,0.373,inactive
ZNF426,1,-0.594,70.1,-0.671,inactive
ZNF426,2,0.892,99.6,0.781,inactive
ZNF426,3,0.112,84.1,-0.311,inactive
TEX2,1,-0.0902,80.1,-0.341,inactive
TEX2,2,-0.728,67.4,-1.39,inactive
TEX2,3,1.13,104,1.34,inactive
LMO4,1,-0.873,64.5,-0.0236,inactive
LMO4,2,4.05,163,2.98,active
LMO4,3,-0.75,67,0.385,inactive
ENTPD7,1,0.542,92.7,-0.00565,inactive
ENTPD7,2,-0.338,75.2,-0.912,inactive
ENTPD7,3,-0.581,70.3,-0.947,inactive
PLA2G2F,1,-0.505,71.8,-0.321,inactive
PLA2G2F,2,0.035,82.6,-0.0913,inactive
PLA2G2F,3,-0.259,76.7,-0.75,inactive
USP8P1,1,0.478,91.4,0.563,inactive
USP8P1,2,-0.301,75.9,-0.134,inactive
USP8P1,3,-0.541,71.1,0.243,inactive
BCL10,1,1.8,118,1.72,inactive
BCL10,2,-0.846,65.1,-0.788,inactive
BCL10,3,-0.351,74.9,-0.936,inactive
LAP3,1,0.0706,83.3,-0.16,inactive
LAP3,2,-1.58,50.4,-1.38,inactive
LAP3,3,0.575,93.3,-0.201,inactive
